Assay results as given in patent US20160024163A1.
Results are given in words; binding and its absence hold for the method and conditions named. Binding seen in cells or lysates may run through a third protein. Some results given as binding are weak or reduced against the parent protein; the word gives no strength. Where a sequence is shown, tags or fusion partners need not be part of it.

By UniProt entry, the sequences of proteins in these tests, tags left out.
UniProt Q06330: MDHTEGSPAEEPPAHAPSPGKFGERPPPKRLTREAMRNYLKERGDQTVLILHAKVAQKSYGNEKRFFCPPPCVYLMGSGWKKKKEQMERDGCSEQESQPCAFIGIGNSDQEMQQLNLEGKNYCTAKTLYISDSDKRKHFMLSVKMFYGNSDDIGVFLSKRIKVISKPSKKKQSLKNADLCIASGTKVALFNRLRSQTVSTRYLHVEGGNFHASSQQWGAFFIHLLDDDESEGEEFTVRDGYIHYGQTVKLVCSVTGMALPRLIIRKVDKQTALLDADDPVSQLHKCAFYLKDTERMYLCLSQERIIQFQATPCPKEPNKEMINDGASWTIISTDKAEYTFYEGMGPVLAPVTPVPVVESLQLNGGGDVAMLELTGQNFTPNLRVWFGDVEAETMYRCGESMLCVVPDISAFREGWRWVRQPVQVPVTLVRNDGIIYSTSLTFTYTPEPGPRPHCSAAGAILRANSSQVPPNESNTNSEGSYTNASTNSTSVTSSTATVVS

What was measured:
[1] = biological target: recombining binding protein suppressor of hairless (RBP-J) (human) (UniProt Q06330); assay: co-immunoprecipitation in HEK293 cells (IP with GFP antibody, blot for RBP-J; FIG. 8F)
[2] = biological target: recombining binding protein suppressor of hairless (RBP-J) (human) (UniProt Q06330); assay: co-immunoprecipitation in HEK293 cells, as summed up in the example's discussion
[3] = biological target: recombining binding protein suppressor of hairless (RBP-J) (human) (UniProt Q06330); assay: co-immunoprecipitation in HEK293 cells (FIGS. 8F-8G)

Measured: binding

B1: GFP-GIT1(ANK) (protein, not shown: large carriers)
chain: DLSKQLHSSVRTGNLETCLRLLSLGAQANFFHPEKGTTPLHVAAKAGQTLQAELLVVYGADPGSPDVNGRTPIDYARQAGHHELAERLVECQYELTD
binds: all assays above
